Assay results from the supplement of paper PMC10849652.
The other results are listed elsewhere or left out.

Sequences of proteins named here, by UniProt entry; tags and fusion partners are left off. A change or cut given only in a name is not applied to a line headed by its entry.
UniProt Q15369, whole entry, looked up: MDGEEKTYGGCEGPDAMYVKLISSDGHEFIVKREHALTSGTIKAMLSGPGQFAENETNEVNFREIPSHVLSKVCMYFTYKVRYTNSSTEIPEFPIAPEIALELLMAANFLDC
UniProt P68104, whole entry, looked up: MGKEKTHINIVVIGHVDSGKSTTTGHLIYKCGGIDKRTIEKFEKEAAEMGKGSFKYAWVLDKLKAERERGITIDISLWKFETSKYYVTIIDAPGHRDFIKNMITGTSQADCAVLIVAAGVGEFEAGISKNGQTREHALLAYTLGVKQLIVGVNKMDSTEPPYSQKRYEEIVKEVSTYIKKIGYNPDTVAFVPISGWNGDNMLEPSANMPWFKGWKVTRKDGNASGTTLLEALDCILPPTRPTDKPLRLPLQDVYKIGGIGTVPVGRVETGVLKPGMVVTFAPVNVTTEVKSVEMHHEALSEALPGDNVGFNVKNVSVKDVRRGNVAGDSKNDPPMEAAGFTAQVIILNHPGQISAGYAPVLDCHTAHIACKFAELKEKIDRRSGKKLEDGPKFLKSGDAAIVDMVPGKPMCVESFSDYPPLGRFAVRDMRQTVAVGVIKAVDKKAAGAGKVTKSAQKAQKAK
UniProt Q8N5X7: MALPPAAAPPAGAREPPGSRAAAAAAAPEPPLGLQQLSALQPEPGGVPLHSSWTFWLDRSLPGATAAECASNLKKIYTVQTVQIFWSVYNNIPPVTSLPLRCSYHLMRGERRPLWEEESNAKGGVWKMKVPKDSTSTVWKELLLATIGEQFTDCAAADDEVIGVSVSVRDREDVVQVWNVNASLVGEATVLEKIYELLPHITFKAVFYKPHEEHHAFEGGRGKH
UniProt Q9H0I2: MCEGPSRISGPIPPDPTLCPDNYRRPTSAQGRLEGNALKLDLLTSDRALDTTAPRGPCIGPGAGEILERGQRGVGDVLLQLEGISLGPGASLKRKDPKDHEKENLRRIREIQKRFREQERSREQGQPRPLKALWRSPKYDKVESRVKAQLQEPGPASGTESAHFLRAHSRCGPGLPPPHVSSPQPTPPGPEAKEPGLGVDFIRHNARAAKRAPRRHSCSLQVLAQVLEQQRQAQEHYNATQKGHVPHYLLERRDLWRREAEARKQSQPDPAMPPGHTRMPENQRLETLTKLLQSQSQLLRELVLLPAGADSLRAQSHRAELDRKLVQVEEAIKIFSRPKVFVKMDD
UniProt Q96JJ3: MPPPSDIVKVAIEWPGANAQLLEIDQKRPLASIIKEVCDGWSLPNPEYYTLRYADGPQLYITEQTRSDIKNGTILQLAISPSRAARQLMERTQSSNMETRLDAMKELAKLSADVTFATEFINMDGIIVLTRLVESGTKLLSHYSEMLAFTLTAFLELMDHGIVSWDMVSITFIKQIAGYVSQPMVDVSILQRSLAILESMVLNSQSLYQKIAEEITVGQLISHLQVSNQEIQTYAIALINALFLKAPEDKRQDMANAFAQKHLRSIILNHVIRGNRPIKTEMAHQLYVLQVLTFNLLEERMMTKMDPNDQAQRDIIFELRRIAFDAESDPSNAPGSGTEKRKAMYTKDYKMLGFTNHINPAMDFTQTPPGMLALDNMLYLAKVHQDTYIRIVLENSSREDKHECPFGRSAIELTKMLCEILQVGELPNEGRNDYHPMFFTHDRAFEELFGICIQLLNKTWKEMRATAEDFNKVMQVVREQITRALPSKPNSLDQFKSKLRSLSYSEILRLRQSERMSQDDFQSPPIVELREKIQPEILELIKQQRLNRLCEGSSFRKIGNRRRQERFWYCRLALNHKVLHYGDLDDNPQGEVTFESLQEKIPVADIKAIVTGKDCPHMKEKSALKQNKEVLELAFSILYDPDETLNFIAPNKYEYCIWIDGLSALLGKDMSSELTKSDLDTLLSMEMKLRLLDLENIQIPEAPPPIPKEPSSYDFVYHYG
UniProt Q04637, whole entry, looked up: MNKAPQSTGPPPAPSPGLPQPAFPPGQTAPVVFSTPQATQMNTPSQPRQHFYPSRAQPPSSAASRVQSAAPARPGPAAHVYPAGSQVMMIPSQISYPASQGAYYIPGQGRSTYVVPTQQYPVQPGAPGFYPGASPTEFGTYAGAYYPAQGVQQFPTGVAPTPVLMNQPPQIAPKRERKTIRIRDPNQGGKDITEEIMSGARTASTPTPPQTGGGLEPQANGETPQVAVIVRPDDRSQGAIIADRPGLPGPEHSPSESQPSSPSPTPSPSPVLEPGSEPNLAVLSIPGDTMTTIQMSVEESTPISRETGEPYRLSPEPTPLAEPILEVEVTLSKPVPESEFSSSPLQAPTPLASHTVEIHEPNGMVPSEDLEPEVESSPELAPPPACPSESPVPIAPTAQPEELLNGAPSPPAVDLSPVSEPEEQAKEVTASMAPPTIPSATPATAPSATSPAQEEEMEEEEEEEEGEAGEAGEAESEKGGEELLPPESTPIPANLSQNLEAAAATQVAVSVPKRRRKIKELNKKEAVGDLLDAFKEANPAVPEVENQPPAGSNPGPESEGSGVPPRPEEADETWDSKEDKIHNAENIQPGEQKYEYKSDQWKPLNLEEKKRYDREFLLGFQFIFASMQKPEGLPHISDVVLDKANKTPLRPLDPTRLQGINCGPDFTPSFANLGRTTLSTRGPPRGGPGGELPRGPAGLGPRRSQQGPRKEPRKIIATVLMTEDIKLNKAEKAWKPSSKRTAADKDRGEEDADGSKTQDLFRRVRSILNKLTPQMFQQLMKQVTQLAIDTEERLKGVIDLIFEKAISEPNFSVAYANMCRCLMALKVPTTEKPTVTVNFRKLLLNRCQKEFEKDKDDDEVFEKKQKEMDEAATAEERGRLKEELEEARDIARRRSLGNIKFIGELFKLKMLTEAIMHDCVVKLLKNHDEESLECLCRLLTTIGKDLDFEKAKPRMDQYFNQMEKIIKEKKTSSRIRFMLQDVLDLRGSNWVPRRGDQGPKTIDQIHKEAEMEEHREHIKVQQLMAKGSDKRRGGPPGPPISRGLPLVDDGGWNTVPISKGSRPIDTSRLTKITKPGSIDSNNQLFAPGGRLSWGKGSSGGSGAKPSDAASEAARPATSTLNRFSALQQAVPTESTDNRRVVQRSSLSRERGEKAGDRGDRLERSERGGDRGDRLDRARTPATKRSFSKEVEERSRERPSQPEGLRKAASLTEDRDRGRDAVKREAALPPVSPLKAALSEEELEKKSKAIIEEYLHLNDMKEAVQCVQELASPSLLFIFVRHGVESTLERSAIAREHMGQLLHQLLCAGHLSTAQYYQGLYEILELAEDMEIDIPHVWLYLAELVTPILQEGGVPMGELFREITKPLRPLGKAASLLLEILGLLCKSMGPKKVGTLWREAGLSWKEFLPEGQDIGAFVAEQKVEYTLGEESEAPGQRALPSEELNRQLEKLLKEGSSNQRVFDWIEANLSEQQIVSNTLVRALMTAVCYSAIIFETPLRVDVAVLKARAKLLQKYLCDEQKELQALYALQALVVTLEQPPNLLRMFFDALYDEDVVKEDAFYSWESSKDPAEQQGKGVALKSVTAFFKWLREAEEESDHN
UniProt Q5JPI9: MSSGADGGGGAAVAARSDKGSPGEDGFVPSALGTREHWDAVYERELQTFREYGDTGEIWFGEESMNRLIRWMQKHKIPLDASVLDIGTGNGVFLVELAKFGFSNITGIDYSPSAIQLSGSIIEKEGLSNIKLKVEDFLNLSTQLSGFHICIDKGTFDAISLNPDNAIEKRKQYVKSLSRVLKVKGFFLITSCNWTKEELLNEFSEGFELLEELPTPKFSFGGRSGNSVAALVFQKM
UniProt Q8TE02: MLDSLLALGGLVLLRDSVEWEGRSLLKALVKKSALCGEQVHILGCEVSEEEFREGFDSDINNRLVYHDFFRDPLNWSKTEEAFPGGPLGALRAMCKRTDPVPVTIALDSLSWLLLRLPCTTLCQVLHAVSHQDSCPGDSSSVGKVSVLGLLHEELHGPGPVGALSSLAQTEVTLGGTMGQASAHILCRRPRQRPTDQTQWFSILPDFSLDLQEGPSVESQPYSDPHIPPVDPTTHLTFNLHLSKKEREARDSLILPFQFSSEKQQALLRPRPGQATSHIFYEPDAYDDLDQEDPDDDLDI
UniProt O60739, whole entry, looked up: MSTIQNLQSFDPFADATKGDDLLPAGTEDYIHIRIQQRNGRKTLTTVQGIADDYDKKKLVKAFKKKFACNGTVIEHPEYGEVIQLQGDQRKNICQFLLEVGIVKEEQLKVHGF
UniProt Q14241: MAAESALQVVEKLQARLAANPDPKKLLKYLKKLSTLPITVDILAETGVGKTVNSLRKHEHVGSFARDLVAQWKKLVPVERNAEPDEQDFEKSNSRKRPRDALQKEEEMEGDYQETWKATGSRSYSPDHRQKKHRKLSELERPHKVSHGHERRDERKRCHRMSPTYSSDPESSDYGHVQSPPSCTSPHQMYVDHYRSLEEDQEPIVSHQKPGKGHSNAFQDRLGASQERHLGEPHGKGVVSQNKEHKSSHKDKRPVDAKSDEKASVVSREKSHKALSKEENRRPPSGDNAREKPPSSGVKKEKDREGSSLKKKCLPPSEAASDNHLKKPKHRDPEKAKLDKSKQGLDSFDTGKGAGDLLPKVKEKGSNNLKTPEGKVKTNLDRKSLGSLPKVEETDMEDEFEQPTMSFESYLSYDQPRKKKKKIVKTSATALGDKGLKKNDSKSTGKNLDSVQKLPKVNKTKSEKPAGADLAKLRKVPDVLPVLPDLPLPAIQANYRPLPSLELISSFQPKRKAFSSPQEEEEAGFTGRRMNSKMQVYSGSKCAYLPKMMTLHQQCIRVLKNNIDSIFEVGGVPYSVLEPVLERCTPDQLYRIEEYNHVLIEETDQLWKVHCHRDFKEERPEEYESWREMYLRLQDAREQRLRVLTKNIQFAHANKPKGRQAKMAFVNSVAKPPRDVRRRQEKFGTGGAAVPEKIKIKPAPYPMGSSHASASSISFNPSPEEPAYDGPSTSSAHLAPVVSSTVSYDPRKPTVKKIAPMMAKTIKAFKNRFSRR
UniProt Q92556, whole entry, looked up: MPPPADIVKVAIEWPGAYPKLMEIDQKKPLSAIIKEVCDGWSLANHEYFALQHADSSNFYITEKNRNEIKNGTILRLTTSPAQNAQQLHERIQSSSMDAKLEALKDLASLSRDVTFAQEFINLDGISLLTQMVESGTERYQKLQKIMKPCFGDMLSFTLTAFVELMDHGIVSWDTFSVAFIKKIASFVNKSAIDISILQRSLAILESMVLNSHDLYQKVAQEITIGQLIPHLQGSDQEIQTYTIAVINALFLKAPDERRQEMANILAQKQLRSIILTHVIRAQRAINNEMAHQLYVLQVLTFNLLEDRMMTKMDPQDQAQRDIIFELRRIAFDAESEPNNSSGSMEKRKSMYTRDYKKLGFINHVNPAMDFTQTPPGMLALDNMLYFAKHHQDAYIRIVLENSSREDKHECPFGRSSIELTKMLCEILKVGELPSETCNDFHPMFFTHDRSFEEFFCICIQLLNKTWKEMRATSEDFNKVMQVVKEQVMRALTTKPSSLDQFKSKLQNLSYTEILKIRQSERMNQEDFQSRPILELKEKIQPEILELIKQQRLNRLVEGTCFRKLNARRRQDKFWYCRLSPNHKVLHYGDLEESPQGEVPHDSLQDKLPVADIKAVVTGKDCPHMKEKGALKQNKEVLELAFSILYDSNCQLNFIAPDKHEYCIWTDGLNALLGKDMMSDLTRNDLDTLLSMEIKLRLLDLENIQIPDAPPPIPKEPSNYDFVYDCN
UniProt Q9Y6B2: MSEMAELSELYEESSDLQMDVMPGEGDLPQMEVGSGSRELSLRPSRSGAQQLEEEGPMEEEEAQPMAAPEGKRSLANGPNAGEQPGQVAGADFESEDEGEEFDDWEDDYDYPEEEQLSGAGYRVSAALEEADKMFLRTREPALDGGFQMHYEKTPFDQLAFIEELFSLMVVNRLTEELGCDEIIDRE
UniProt Q9GZV4: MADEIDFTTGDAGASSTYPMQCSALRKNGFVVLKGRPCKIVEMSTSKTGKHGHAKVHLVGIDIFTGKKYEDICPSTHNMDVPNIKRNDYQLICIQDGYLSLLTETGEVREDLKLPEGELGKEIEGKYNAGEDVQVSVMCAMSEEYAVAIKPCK
UniProt P26378: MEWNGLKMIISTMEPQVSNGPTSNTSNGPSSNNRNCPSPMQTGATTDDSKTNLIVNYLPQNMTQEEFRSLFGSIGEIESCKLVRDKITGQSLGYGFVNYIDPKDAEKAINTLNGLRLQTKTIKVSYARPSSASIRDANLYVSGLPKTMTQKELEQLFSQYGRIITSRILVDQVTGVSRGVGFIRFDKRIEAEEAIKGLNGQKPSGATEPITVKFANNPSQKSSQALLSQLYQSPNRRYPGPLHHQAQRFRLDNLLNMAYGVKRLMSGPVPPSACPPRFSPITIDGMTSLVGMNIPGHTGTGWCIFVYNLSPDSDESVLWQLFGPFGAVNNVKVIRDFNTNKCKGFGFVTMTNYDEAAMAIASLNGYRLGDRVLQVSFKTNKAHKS
UniProt Q8WVE0: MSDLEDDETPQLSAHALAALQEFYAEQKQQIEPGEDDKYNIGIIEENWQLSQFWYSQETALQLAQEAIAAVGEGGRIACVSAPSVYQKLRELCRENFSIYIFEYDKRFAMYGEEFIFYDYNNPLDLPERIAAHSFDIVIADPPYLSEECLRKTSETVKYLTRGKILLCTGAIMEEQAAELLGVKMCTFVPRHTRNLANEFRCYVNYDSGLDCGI

Assays:
Experiment in all cases: log2 fold change, soluble protein after heating vs DMSO (PISA); higher = thermal stabilisation; K562 cells, 10 uM, 30 min; active = over 0.2 and 3.5 SD of the protein, either way, in both replicates (recomputed)
erlotinib = compound: C#Cc1cccc(Nc2ncnc3cc(OCCOC)c(OCCOC)cc23)c1 [erlotinib]
How it was run: (§1)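 Aliquots of K562 cells (2×10^6 cells/mL) treated with 10 μM compound for 30 min were heated for 3 min over 48°C-58°C. After pooling and extraction in PBS with 0.5% NP-40 at 4°C, soluble protein from a 21,000xg, 90 min spin was quantified by TMTpro 16plex LC-MS/MS with channel sums equalised. Thermal stability is expressed against control samples, from duplicates, as a log2 fold change.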

[1] = compound: C/C(=N\NC(=O)C1=CC(=CC=C1)S(=O)(=O)N2CCOCC2)/C3=C(C=CC(=C3)Cl)O
How it was run: as §1

[2] = compound: C1=CC(=C(C=C1Cl)C2=NC3=NC=CN=C3C(=N2)NC4=CC=NC=C4)F
How it was run: as §1

[3] = compound: C1=CC(=CC=C1C2=NC3=C(N2)C=C(C=C3)C(=O)N)OC4=CC=C(C=C4)Cl
How it was run: as §1

[4] = compound: C1=CC2=C(C=CC(=C2)/C=C\3/C(=O)NC(=NCC4=CC=CS4)S3)N=C1
How it was run: as §1

[5] = compound: C1=CC2=NC=CN=C2C=C1/C=C/3\C(=O)NC(=O)S3
How it was run: as §1

[6] = compound: C1=CC=C(C=C1)C2=NC(=C(N2)C3=CC=NC=C3)C4=CC(=C(C=C4)Cl)O
How it was run: as §1

[7] = compound: C1=CC=C2C(=C1)C3=NNC4=CC=CC(=C43)C2=O
How it was run: as §1

[8] = compound: C1CCN(C1)C(=O)NC2=CC=CC(=C2)NC3=NC=C(C(=N3)NCCC4=CN=CN4)Br
How it was run: as §1

[9] = compound: C1CN(CCC1(CC2=CC=C(C=C2)Cl)N)C3=NC=NC4=C3C=CN4
How it was run: as §1

Measured: log2 fold change

ENTPD5 (UniProt O75356)
inactive: erlotinib -0.017 | [1] 0.071 | [2] -0.053 | [3] 0.029 | [4] 0.139 | [5] -0.04 | [6] -0.009 | [7] 0.047 | [8] -0.049 | [9] -0.107

EIF2AK3 (UniProt Q9NZJ5)
inactive: erlotinib 0.056 | [1] 0.022 | [2] 0.091 | [3] -0.222 | [4] 0.421 | [5] -0.311 | [7] -0.016 | [8] 0.148 | [9] 0.075

EIF3G (UniProt K7ER90)
inactive: erlotinib 0.057 | [1] 0.005 | [2] -0.004 | [3] 0.004 | [4] -0.025 | [5] 0.527 | [7] -0.009 | [8] 0.016 | [9] 0.015

ELOC (UniProt Q15369)
inactive: erlotinib -0.055 | [1] 0.124 | [2] 0.066 | [3] 0.017 | [4] 0.117 | [5] 0.048 | [6] 0.075 | [7] 0.009 | [8] -0.016 | [9] -0.024

ELP2 isoform 6 (UniProt Q6IA86)
inactive: erlotinib -0.005 | [1] 0.005 | [2] 0.064 | [3] -0.003 | [4] 0.042 | [5] -0.026 | [6] 0.003 | [7] -0.02 | [8] 0.002 | [9] -0.004

EIF5 (UniProt P55010)
inactive: erlotinib 0.002 | [1] 0.07 | [2] 0.003 | [3] -0.002 | [4] 0.023 | [5] 0.006 | [6] 0.013 | [7] 0.026 | [8] 0.001 | [9] 0.008

EFEMP1 (UniProt Q12805)
inactive: erlotinib -0.279 | [1] -0.097 | [3] 0.137 | [4] 0.177 | [6] -0.074 | [7] -0.056 | [8] 0.11 | [9] -0.03

EFCAB2 (UniProt Q5VUJ9)
inactive: erlotinib 0.356 | [1] -0.166 | [3] -0.159 | [4] 0.311 | [6] 0.059 | [7] -0.007

EIF3G (UniProt O75821)
inactive: erlotinib -0.007 | [1] 0.024 | [2] -0.016 | [3] 0.031 | [4] -0.058 | [5] 0.017 | [6] -0.001 | [7] 0.008 | [8] -0.003 | [9] -0.022

ELMOD2 (UniProt Q8IZ81)
inactive: erlotinib -0.066 | [1] 0.054 | [2] -0.001 | [3] -0.02 | [4] 0.041 | [5] 0.03 | [6] -0.045 | [7] -0.045 | [8] -0.002 | [9] 0.012

EEF1A1 (UniProt P68104)
inactive: erlotinib -0.083 | [1] 0.119 | [2] 0.051 | [3] 0.062 | [4] -0.062 | [5] -0.343 | [6] 0.195 | [7] 0.135 | [8] -0.055 | [9] 0.122

EIF2A (UniProt Q9BY44)
inactive: erlotinib -0.043 | [1] -0.04 | [2] -0.098 | [3] 0.03 | [4] -0.068 | [5] -0.016 | [6] 0.019 | [7] 0.012 | [8] -0.021 | [9] -0.059

ENTPD6 (UniProt O75354)
inactive: erlotinib 0.014 | [1] -0.035 | [2] 0.086 | [3] 0.048 | [4] -0.058 | [5] 0.017 | [6] -0.019 | [7] 0.068 | [8] 0.068 | [9] 0.017

EIF4E3 (UniProt Q8N5X7)
inactive: erlotinib 0.016 | [3] -0.035 | [6] 0.003

ENKD1 (UniProt Q9H0I2)
inactive: erlotinib 0.271 | [3] -0.125 | [8] -0.081 | [9] 0

EIF4B (UniProt F8VP89)
inactive: [1] -0.251 | [4] 0.244 | [5] 0.175 | [6] -0.054 | [7] -0.004

ELMO2 (UniProt Q96JJ3)
inactive: [6] -0.021

ENTPD4 (UniProt Q9Y227)
inactive: erlotinib -0.049 | [2] 0.198 | [3] 0.114 | [5] 0.118 | [8] -0.132 | [9] 0.078

ENO3 (UniProt K7EKN2)
inactive: [6] -0.177

3 consecutive entries already listed, quoted:
EIF4B (UniProt F8VP89)
inactive: [1] -0.251 | [4] 0.244 | [5] 0.175 | [6] -0.054 | [7] -0.004

ELMO2 (UniProt Q96JJ3)
inactive: [6] -0.021

ENTPD4 (UniProt Q9Y227)
inactive: erlotinib -0.049 | [2] 0.198 | [3] 0.114 | [5] 0.118 | [8] -0.132 | [9] 0.078

Further results follow.

EIF4G1 (UniProt Q04637)
inactive: [1] 0.171 | [4] 0.018 | [7] -0.356 | [8] -0.301 | [9] -0.425

EFR3A (UniProt Q14156)
inactive: [2] -0.055

EEF1AKMT2 (UniProt Q5JPI9)
inactive: erlotinib 0.115 | [3] 0.111 | [5] 0.017

ELOVL6 (UniProt Q9H5J4)
inactive: erlotinib -0.298 | [3] 0.049 | [5] 0.075 | [6] 0.013 | [8] -0.014 | [9] 0.065

EHBP1 (UniProt Q8NDI1)
inactive: [1] -0.012 | [4] 0.086 | [7] 0.095 | [8] -0.132 | [9] 0.033

EFHD1 (UniProt Q9BUP0)
inactive: [2] 0.213 | [8] 0.127 | [9] 0.1

EEF2K (UniProt O00418)
inactive: erlotinib -0.064 | [2] -0.137 | [3] -0.024 | [6] 0.027

EP400P1 isoform 6 (UniProt Q6ZTU2)
inactive: [6] 0.027 | [8] 0.02 | [9] -0.056

ELP5 isoform 2 (UniProt Q8TE02)
inactive: erlotinib 0.039 | [3] 0.137

EIF1B (UniProt O60739)
inactive: erlotinib -0.09 | [2] 0.073 | [3] -0.048 | [5] 0.099 | [6] 0.1

ELOA (UniProt Q14241)
inactive: [2] -0.213

ENTPD7 (UniProt Q9NQZ7)
inactive: erlotinib 0.096 | [2] -0.028 | [3] -0.181 | [5] 0.063 | [8] -0.042 | [9] 0.037

ELMO1 (UniProt Q92556)
inactive: erlotinib 0.111 | [2] -0.079 | [3] -0.001 | [5] 0.037 | [6] -0.308

EIF3E (UniProt E5RIT4)
inactive: [2] -0.252

EIF3I (UniProt Q5TFK1)
inactive: [1] -0.037 | [4] 0.104 | [6] 0.09 | [7] -0.054 | [8] -0.063 | [9] 0.095

EID1 (UniProt Q9Y6B2)
inactive: erlotinib -0.17 | [2] -0.425 | [3] 0.137 | [8] 0.092 | [9] 0.029

EIF4H isoform 2 (UniProt Q15056)
inactive: erlotinib -0.156 | [1] 0.09 | [3] 0.001 | [4] -0.228 | [7] 0.411

EIF5A (UniProt I3L397)
inactive: [6] -0.072

EIF5A2 (UniProt Q9GZV4)
inactive: [1] 0.193 | [4] 0.118 | [5] 0.035 | [6] -0.013 | [7] 0.014

ELAVL4 (UniProt P26378)
inactive: [5] 0.033 | [6] 0.057 | [8] -0.066 | [9] 0.036

EEF1AKMT1 (UniProt Q8WVE0)
inactive: [2] 0.016

EPB41 isoform 4 (UniProt P11171)
inactive: [5] 0.043 | [6] -0.003 | [8] -0.11 | [9] -0.028

ENPP2 isoform 2 (UniProt Q13822)
inactive: [2] -0.06 | [5] -0.031

ENTR1 (UniProt Q96C92)
inactive: erlotinib -0.015 | [3] 0.043

ENO2 (UniProt U3KQQ1)
inactive: [5] -0.021

EEF1D isoform 3 (UniProt P29692)
inactive: erlotinib -0.009 | [3] 0.009 | [8] -0.16 | [9] -0.087

EGFL7 (UniProt Q9UHF1)
inactive: [1] 0.02 | [2] -0.209 | [4] 0.026 | [5] 0.124 | [7] -0.15

EEF1AKMT4-ECE2 (UniProt P0DPD8)
inactive: [5] -0.012
